# Assay results as given in PubChem BioAssay (NCATS).
# Values joined by “and” are separate entries in the source; they are usually repeats but may differ in a detail not shown here. Equal values may be shown once. The inconclusive results got no clear call from the source; some entries with a clear call stand among them for comparison. For some assays here: A potency beside an inconclusive call is a rough fit, not a confirmed value. The source holds several records for some structures; these can differ, active in one and inactive in another. Active and inactive are the calls of the source. Unless noted, calls come from the whole dose curve; as a rule, active = well fitted curve in the direction sought with a large enough effect; inconclusive = small, poorly fitted or top-dose-only effect, or another doubt; inactive = no such curve, though single readings can be large; an effect the other way counts as inactive or inconclusive.
# How the values were obtained:
# [1] = Quantitative High-Throughput drug screen in 47 multiple myeloma cell lines against the NCATS MIPE library collection: UTMC2_PLB cell viability assay (AID 1919868); conditions: CellTiter-Glo ATP luminescence, 48 h; viability (% of DMSO control): at 45.8 µM (top of the series); note: nearly all actives have a fitted effect of over 55% in size
# In short: (§1)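 Viability after 48 h drug exposure was measured as ATP-dependent luminescence. Cells, 500 per well, sat at 37 °C under 5% CO2; DMSO wells set 100%, media-only wells 0%.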
# [2] = Quantitative High-Throughput drug screen in 47 multiple myeloma cell lines against the NCATS MIPE library collection: PE2_PLB cell viability assay (AID 1919869); note: nearly all actives have a fitted effect of over 35% in size
# In short: as §1
# [3] = Quantitative High-Throughput drug screen in 47 multiple myeloma cell lines against the NCATS MIPE library collection: PCM6_Riken cell viability assay (AID 1919870); conditions: CellTiter-Glo ATP, 48 h; viability (% of control): at 45.8 µM (top of the series); note: nearly all actives have a fitted effect of over 30% in size
# In short: as §1
# [4] = Quantitative High-Throughput drug screen in 47 multiple myeloma cell lines against the NCATS MIPE library collection: KMS11_JCRBsus cell viability assay (AID 1919873); note: nearly all actives have a fitted effect of over 50% in size
# In short: as §1
# [5] = Quantitative High-Throughput drug screen in 47 multiple myeloma cell lines against the NCATS MIPE library collection: KMS28BM_JCRB cell viability assay (AID 1919874); note: nearly all actives have a fitted effect of over 35% in size
# In short: as §1
# [6] = qHTS for identification of novel therapeutic agents for treatment of microphthalmiaassociated transcription factor (MiT) renal cell carcinoma (RCC) (AID 1963991; calls by dose curve); conditions: TFE3-RCC UOK109 viability, CellTiter-Glo, 48 h; active = Z-AUC below -0.8 in all three lines
# In short: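 UOK109/UOK124/UOK145 (TFE3 fusions, three partners); 500 cells/well; MIPE v4.0, 1912 cpds, 11 conc.; 48 h, 37 C; CellTiter-Glo, 15 min RT; lum. Norm.: DMSO 100%, empty 0%.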
# HEK293 = test: Cytotoxic Profiling of Annotated Libraries Using Quantitative High-Throughput Screening (AID 1296008); conditions: Five cell lines viability, CellTiter-Glo ATP luminescence, 48-72 h; max response: stronger effect = lower value; note: nearly all actives have a fitted effect of over 60% in size; for max response: % is set by controls: 0 for no effect and ±100 for the full control effect
# In short: (§2)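 Cells exposed to compounds for 48 or 72 hr at 37 degrees Celsius. Viability read as ATP-coupled luminescence with CellTiter-Glo after 10 min at room temperature.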
# HaCat = test: as above; conditions: Five cell lines viability, CellTiter-Glo ATP luminescence, 48-72 h; max response: stronger effect = lower value
# In short: as §2
# NIH3T3 = test: as above; conditions: Five cell lines viability, CellTiter-Glo ATP luminescence, 48-72 h; max response: stronger effect = lower value
# In short: as §2
# [7] = Quantitative High-Throughput drug screen in 47 multiple myeloma cell lines against the NCATS MIPE library collection: RPMI8226_ATCC cell viability assay (AID 1919871); note: nearly all actives have a fitted effect of over 30% in size
# In short: as §1
# KB-3-1 = test: Cytotoxic Profiling of Annotated Libraries Using Quantitative High-Throughput Screening (AID 1296008); conditions: Five cell lines viability, CellTiter-Glo ATP luminescence, 48-72 h; max response: stronger effect = lower value; note: nearly all actives have a fitted effect of over 60% in size; for max response: % is set by controls: 0 for no effect and ±100 for the full control effect
# In short: as §2
# [8] = Quantitative High-Throughput drug screen in 47 multiple myeloma cell lines against the NCATS MIPE library collection: OPM2_DSMZ cell viability assay (AID 1919872); note: nearly all actives have a fitted effect of over 30% in size
# In short: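 Primary qHTS used for cherry-picking: cells at 500/well, library compounds for 48 h (37C, 5% CO2), luminescent ATP assay.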
# CRL-7250 = normal cell line; test: Cytotoxic Profiling of Annotated Libraries Using Quantitative High-Throughput Screening (AID 1296008); conditions: Five cell lines viability, CellTiter-Glo ATP luminescence, 48-72 h; max response: stronger effect = lower value; note: nearly all actives have a fitted effect of over 60% in size; for max response: % is set by controls: 0 for no effect and ±100 for the full control effect
# In short: as §2
# MCC-13 = test: qHTS assay to identify novel small-molecules to repurpose for Merkel cell carcinoma treatment (AID 1296009); conditions: MCC and control cell lines, CellTiter-Glo viability, 72 h; series mostly up to 46 µM; note: nearly all actives have a fitted effect of over 60% in size
# In short: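 Cells were incubated with compound for 72 hr at 37 degree celsius before CellTiter-Glo addition. Luminescence was normalized with no-cell wells as full cytotoxicity and DMSO as baseline.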
# Potency is the fitted concentration of half-maximal effect.
smiles,measurement,setting,value
O=C(CO)N1CCC(c2[nH]nc(-c3ccc(Cl)cc3)c2-c2ccncn2)CC1,Potency,[1],"inconclusive: 0.59 µM [cytotoxic, full curve, poor fit]"
same,Potency,[2],"inconclusive: 0.372 µM [cytotoxic, full curve, poor fit]"
same,Potency,[3],"inconclusive: 0.935 µM [cytotoxic, full curve, poor fit]"
same,Potency,[4],"inconclusive: 26.4 µM [cytotoxic, partial curve, poor fit]"
same,Potency,[5],"inconclusive: 37.2 µM [cytotoxic, single point]"
same,Potency,[6],"inconclusive: 13.2 µM [falling, partial curve]"
same,max response,HEK293,inactive: -13.1% and inactive: -1.15%
same,Potency,HaCat,"inconclusive: 32.6 µM [inhibitor, partial curve, poor fit]"
same,Potency,NIH3T3,"inconclusive: 33.2 µM [inhibitor, single point] and inconclusive: 25.9 µM [inhibitor, single point]"
Cn1cc(C=C2C(=O)Nc3cccnc32)c2ccccc21,Potency,[1],"inconclusive: 0.0015 µM [cytotoxic, full curve, poor fit]"
same,Potency,[3],"inconclusive: 13.2 µM [cytotoxic, partial curve, poor fit]"
same,Potency,[7],inactive
same,Potency,[4],"inconclusive: 14.8 µM [cytotoxic, partial curve]"
same,Potency,[5],inactive
same,Potency,[6],"inconclusive: 37.2 µM [falling, single point]"
same,Potency,HEK293,"inconclusive: 26.4 µM [inhibitor, single point]"
same,max response,HaCat,inactive: -0.233%
same,max response,NIH3T3,inactive: -5.8%
CN1CCN(Cc2ccc(NC(=O)Nc3ccc(Oc4cc(NC(=O)C5CC5)ncn4)cc3)cc2C(F)(F)F)CC1,Potency,[1],active: 0.132 µM
same,Potency,[5],active: 0.209 µM
same,Potency,[6],"inconclusive: 2.35 µM [falling, full curve]"
same,Potency,HEK293,"inconclusive: 0.118 µM [inhibitor, full curve, poor fit]"
same,Potency,HaCat,active: 743 nM and active: 920 nM
same,Potency,KB-3-1,active: 132 nM and active: 206 nM
same,Potency,NIH3T3,active: 0.59 µM
COc1nc(-c2ccc3c(c2)OCO3)n(-c2ccc(NC(=O)CSc3ccccc3)cc2)n1,Potency,[3],inactive
same,Potency,[5],"inconclusive: 10.5 µM [cytotoxic, full curve, poor fit]"
same,Potency,HEK293,"inconclusive: 37.2 µM [inhibitor, single point] and inconclusive: 29.1 µM [inhibitor, single point]"
same,Potency,HaCat,"inconclusive: 33.2 µM [inhibitor, single point]"
same,outcome,HaCat,inactive
same,Potency,NIH3T3,"inconclusive: 23.5 µM [inhibitor, partial curve]"
CC(=O)OCC(=O)[C@@]1(O)[C@H](C)C[C@H]2[C@@H]3C=C(C)C4=Cc5c(cnn5-c5ccccc5)C[C@]4(C)[C@@H]3[C@@H](O)C[C@@]21C,Potency,[1],active: 11.8 µM
same,Potency,[8],active: 20.9 µM
same,Potency,[4],"inconclusive: 0.0021 µM [cytotoxic, full curve]"
same,Potency,[6],"inconclusive: 10.5 µM [falling, partial curve]"
same,Potency,CRL-7250,active: 20.9 µM
CCCCOc1ccc(C(=O)Nc2ccc(F)cc2F)cc1,Potency,[1],"inconclusive: 0.0013 µM [rising, full curve, poor fit]"
same,Potency,[7],inactive
same,Potency,[4],inactive
same,Potency,[6],inconclusive: 11.8 µM
same,Potency,HEK293,"inconclusive: 25.9 µM [inhibitor, single point]"
same,max response,HEK293,inactive: 2.49%
same,Potency,KB-3-1,"inconclusive: 20.6 µM [inhibitor, partial curve, poor fit]"
CC1(C)[C@H](O[C@H]2O[C@H](C(=O)O)[C@@H](O)[C@H](O)[C@H]2O[C@@H]2O[C@H](C(=O)O)[C@@H](O)[C@H](O)[C@H]2O)CC[C@@]2(C)[C@H]1CC[C@]1(C)[C@H]2C(=O)C=C2[C@H]3C[C@@](C)(C(=O)O)CC[C@]3(C)CC[C@]21C,Potency,[2],inactive
same,Potency,[3],inactive
same,Potency,[7],"inconclusive: 0.0083 µM [rising, full curve, poor fit]"
same,Potency,[4],inconclusive: 0.001 µM
same,Potency,[5],inactive
same,max response,CRL-7250,inactive: -14.3%
NC(=O)OCC(COC(N)=O)c1ccccc1,Potency,[1],"inconclusive: 0.0012 µM [rising, full curve, poor fit]"
same,Potency,[3],"inconclusive: 0.0015 µM [rising, full curve, poor fit]"
same,Potency,[4],"inconclusive: 0.935 µM [cytotoxic, full curve, poor fit]"
same,Potency,[5],"inconclusive: 0.935 µM [cytotoxic, full curve, poor fit]"
same,max response,HEK293,inactive: -9.25%
same,outcome,HEK293,inactive
Cc1nc(Nc2ncc(C(=O)Nc3c(C)cccc3Cl)s2)cc(N2CCN(CCO)CC2)n1,Potency,[1],"inconclusive: 3.72 µM [cytotoxic, partial curve]"
same,Potency,[7],"inconclusive: 26.4 µM [cytotoxic, single point]"
same,Potency,[8],"inconclusive: 14.8 µM [cytotoxic, partial curve]"
same,Potency,[5],"inconclusive: 26.4 µM [cytotoxic, single point]"
same,Potency,HEK293,"inconclusive: 26.4 µM [inhibitor, single point] and active: 23.7 µM and inconclusive: 29.1 µM [inhibitor, single point]"
same,Potency,HaCat,"inconclusive: 74.3 nM [inhibitor, full curve, poor fit] and inconclusive: 16.4 nM [inhibitor, full curve, poor fit]"
same,Potency,KB-3-1,"inconclusive: 33.2 µM [inhibitor, partial curve, poor fit] and inconclusive: 32.6 µM [inhibitor, single point]"
same,Potency,NIH3T3,active: 59.6 nM and active: 73.1 nM
same,Potency,MCC-13,"inconclusive: 0.0833 µM [inhibitor, full curve]"
O=C(N[C@H](CO)[C@H](O)c1ccc([N+](=O)[O-])cc1)C(Cl)Cl,Potency,[1],"inconclusive: 9.35 µM [rising, partial curve, poor fit]"
same,Potency,[2],"inconclusive: 0.0074 µM [rising, full curve, poor fit]"
same,Potency,[7],"inconclusive: 0.0037 µM [rising, full curve, poor fit]"
same,Potency,[6],inconclusive: 0.0235 µM
same,Potency,HEK293,active: 15.4 µM
same,outcome,HEK293,inactive
same,max response,HaCat,inactive: -14.6% and inactive: -20.9%
same,Potency,KB-3-1,"inconclusive: 7.94 µM [inhibitor, full curve]"
COc1cc(F)c(F)c(Nc2ccc(I)cc2F)c1NS(=O)(=O)C1(C[C@H](O)CO)CC1,Potency,[1],"inconclusive: 9.35 µM [cytotoxic, partial curve, poor fit]"
same,Potency,[2],"inconclusive: 23.5 µM [cytotoxic, single point]"
same,Potency,[8],inactive
same,Potency,[5],active: 20.9 µM
same,Potency,HEK293,"inconclusive: 33.2 µM [inhibitor, single point] and inconclusive: 29.1 µM [inhibitor, single point]"
same,Potency,HaCat,"inconclusive: 18.7 µM [inhibitor, partial curve, poor fit] and inconclusive: 23.1 µM [inhibitor, partial curve, poor fit]"
same,Potency,NIH3T3,"inconclusive: 5.8 µM [inhibitor, partial curve]"
CN1CCN(CCCN2c3ccccc3Sc3ccc(Cl)cc32)CC1,Potency,[1],active: 23.5 µM
same,Potency,[7],"inconclusive: 20.9 µM [cytotoxic, partial curve]"
same,Potency,[5],active: 20.9 µM
same,Potency,[6],"inconclusive: 3.72 µM [falling, full curve]"
same,Potency,HEK293,"inconclusive: 33.5 µM [inhibitor, single point]"
same,max response,HaCat,inactive: 0.937%
same,outcome,HaCat,inactive
same,Potency,KB-3-1,"inconclusive: 33.2 µM [inhibitor, single point]"
same,Potency,NIH3T3,"inconclusive: 26.6 µM [inhibitor, single point]"
COc1cc2ncnc(-n3nc(-c4ccccn4)nc3N)c2cc1OC,Potency,[7],"inconclusive: 16.6 µM [cytotoxic, partial curve]"
same,Potency,[4],inactive
same,Potency,[5],inactive
same,Potency,[6],"inconclusive: 5.9 µM [falling, full curve]"
same,Potency,HEK293,"inconclusive: 5.02 µM [inhibitor, partial curve]"
same,Potency,HaCat,active: 3.17 µM
same,Potency,KB-3-1,"inconclusive: 14.2 µM [inhibitor, single point]"
COCCOC(=O)C1=C(C)NC2=C(C(=O)CC(c3ccccc3OC)C2)C1c1cccc(O)c1 (stereo not drawn),Potency,[1],"inconclusive: 20.9 µM [cytotoxic, partial curve, poor fit]"
same,Potency,[3],"inconclusive: 5.9 µM [cytotoxic, partial curve]"
same,Potency,[7],"inconclusive: 18.7 µM [cytotoxic, partial curve]"
same,Potency,[5],"inconclusive: 16.6 µM [cytotoxic, partial curve]"
same,Potency,[6],"inconclusive: 5.26 µM [falling, partial curve]"
same,Potency,HEK293,"inconclusive: 29.1 µM [inhibitor, single point]"
same,Potency,HaCat,"inconclusive: 1.3 µM [inhibitor, full curve]"
same,Potency,KB-3-1,"inconclusive: 18.4 µM [inhibitor, partial curve, poor fit]"
same,Potency,NIH3T3,"inconclusive: 37.2 µM [inhibitor, single point] and inconclusive: 9.2 µM [inhibitor, partial curve]"
O=C(Nc1cccnc1)N1CCC(Cc2cccc(Oc3ccc(C(F)(F)F)cn3)c2)CC1,Potency,[1],active: 14.8 µM
same,Potency,[7],"inconclusive: 14.8 µM [cytotoxic, partial curve, poor fit]"
same,Potency,[4],"inconclusive: 10.5 µM [cytotoxic, partial curve]"
same,Potency,[6],"inconclusive: 26.4 µM [falling, partial curve, poor fit]"
same,Potency,HEK293,active: 10.5 µM and active: 8.2 µM
same,Potency,HaCat,"inconclusive: 18.4 µM [inhibitor, single point]"
same,Potency,KB-3-1,"inconclusive: 9.35 µM [inhibitor, full curve] and inconclusive: 2.91 µM [inhibitor, partial curve]"
same,Potency,NIH3T3,"inconclusive: 29.6 µM [inhibitor, partial curve, poor fit] and inconclusive: 29.1 µM [inhibitor, single point]"
same,Potency,MCC-13,"inconclusive: 13.2 µM [inhibitor, partial curve]"

# Two records picked at random from the list so far:
smiles,measurement,setting,value
O=C(CO)N1CCC(c2[nH]nc(-c3ccc(Cl)cc3)c2-c2ccncn2)CC1,Potency,[3],"inconclusive: 0.935 µM [cytotoxic, full curve, poor fit]"
CC1(C)[C@H](O[C@H]2O[C@H](C(=O)O)[C@@H](O)[C@H](O)[C@H]2O[C@@H]2O[C@H](C(=O)O)[C@@H](O)[C@H](O)[C@H]2O)CC[C@@]2(C)[C@H]1CC[C@]1(C)[C@H]2C(=O)C=C2[C@H]3C[C@@](C)(C(=O)O)CC[C@]3(C)CC[C@]21C,Potency,[5],inactive
